PubChem BioAssay AID1053209 – Peter MacCallum Cancer Centre – 2014
Aim: 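Follow-up of single siRNAs that strengthen doxorubicin killing in osteosarcoma cells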 (follow-up of hits). System: mouse primary osteosarcoma cells. Reagents: single siRNA against mouse genes, 25 nM (text also states 40 nM). Duration: about 120 h (48 h before drug, then 72 h with drug). Challenge: doxorubicin 100 nM (about IC30-40), added 48 h after transfection, for 72 h. Detection: 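ATP-based luminescent viability, with or without doxorubicin, relative to non-targeting control NT1, mean of two replicates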. Reading the numbers: viability with doxorubicin, vs NT1: higher = more viable cells under doxorubicin; viability without drug, vs NT1: higher = more viable cells without drug. Active means: 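Active when doxorubicin viability is at most 0.7 of NT1 and drug-free viability lies between 0.7 and 1.1, class LC dox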.
The deposit covers about 1,580 reagents; below is a part drawn at random. 207 of all reagents (13%) count as active. 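Rows are single siRNAs; four siRNAs per gene were tested, a gene counting as confirmed only when at least two agree.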 Entries without a mark were called inactive. Reagents against one gene are numbered here. Not all columns of the deposit are shown. No sequences are given here.

target gene	reagent no.	combined effect class	viability with doxorubicin, vs NT1	viability without drug, vs NT1
Ppm1n	1	low viability only with doxorubicin; normal without drug (active)	0.68	0.91
Ppm1n	2	low viability only with doxorubicin; normal without drug (active)	0.69	0.98
Ppm1n	3	normal viability with and without drug	0.78	0.88
Ppm1n	4	normal viability with and without drug	0.8	0.9
Or51af1	1	normal viability with and without drug	0.96	1.02
Or51af1	2	normal viability with and without drug	1.03	1.06
Or51af1	3	normal viability with and without drug	0.92	0.99
Or51af1	4	normal viability with and without drug	0.97	1
Mmd2	1	normal viability with and without drug	1	1.02
Mmd2	2	normal viability with and without drug	0.94	1.01
Mmd2	3	normal viability with and without drug	0.96	1.05
Mmd2	4	normal viability with and without drug	1.04	1.09
Uba1	1	normal viability with and without drug	0.88	0.9
Uba1	2	normal viability with and without drug	0.8	0.86
Uba1	3	normal viability with and without drug	1.02	1.02
Uba1	4	normal viability with and without drug	1.03	0.96
Tcstv3	1	normal viability with and without drug	1	0.93
Tcstv3	2	normal viability with and without drug	0.99	0.9
Tcstv3	3	normal viability with and without drug	0.75	0.96
Tcstv3	4	normal viability with and without drug	0.98	0.86
Rpl13	1	low viability with and without drug	0.24	0.29
Rpl13	2	low viability with and without drug	0.24	0.24
Rpl13	3	low viability with and without drug	0.19	0.24
Rpl13	4	low viability with and without drug	0.16	0.26
Fam13c	1	normal viability with and without drug	0.94	1.04
Fam13c	2	high viability with and without drug	1.12	1.12
Fam13c	3	normal viability with and without drug	0.91	0.93
Fam13c	4	normal viability with and without drug	1.03	1.04
Rps6	1	low viability with and without drug	0.34	0.64
Rps6	2	low viability with and without drug	0.36	0.36
Rps6	3	low viability with and without drug	0.4	0.43
Rps6	4	low viability only with doxorubicin; normal without drug (active)	0.7	0.84
Rpl37	1	low viability with and without drug	0.32	0.44
Rpl37	2	low viability with and without drug	0.32	0.4
Rpl37	3	normal viability with and without drug	0.72	0.76
Rpl37	4	low viability with and without drug	0.33	0.46
Prps1l1	1	high viability only without drug	1.04	1.15
Prps1l1	2	normal viability with and without drug	1.01	1.03
Prps1l1	3	low viability only with doxorubicin; normal without drug (active)	0.62	0.82
Prps1l1	4	normal viability with and without drug	0.97	1.04
Cela1	1	low viability only with doxorubicin; normal without drug (active)	0.34	0.79
Cela1	2	low viability only with doxorubicin; normal without drug (active)	0.68	0.94
Cela1	3	normal viability with and without drug	1	0.98
Cela1	4	low viability with and without drug	0.4	0.58
Psmc5	1	normal viability with and without drug	1.03	0.97
Psmc5	2	low viability with and without drug	0.31	0.58
Psmc5	3	low viability with and without drug	0.2	0.48
Psmc5	4	low viability with and without drug	0.34	0.7
U2af2	1	low viability with and without drug	0.33	0.6
U2af2	2	low viability with and without drug	0.25	0.55
U2af2	3	normal viability with and without drug	0.86	0.86
U2af2	4	normal viability with and without drug	0.82	0.9
Prpf8	1	low viability with and without drug	0.34	0.61
Prpf8	2	low viability with and without drug	0.46	0.55
Prpf8	3	normal viability with and without drug	0.92	0.98
Prpf8	4	low viability with and without drug	0.26	0.54
Tbl1xr1	1	normal viability with and without drug	0.73	0.92
Tbl1xr1	2	normal viability with and without drug	1.07	1.03
Tbl1xr1	3	normal viability with and without drug	1.06	1.01
Tbl1xr1	4	normal viability with and without drug	0.98	1

Called active (from the list above):
target gene	reagent no.	combined effect class	viability with doxorubicin, vs NT1	viability without drug, vs NT1
Ppm1n	1	low viability only with doxorubicin; normal without drug (active)	0.68	0.91
Ppm1n	2	low viability only with doxorubicin; normal without drug (active)	0.69	0.98
Rps6	4	low viability only with doxorubicin; normal without drug (active)	0.7	0.84
Prps1l1	3	low viability only with doxorubicin; normal without drug (active)	0.62	0.82
Cela1	1	low viability only with doxorubicin; normal without drug (active)	0.34	0.79
Cela1	2	low viability only with doxorubicin; normal without drug (active)	0.68	0.94
